Data on 39 molecules can be found in PubChem BioAssay AID493014 (National Center for Advancing Translational Sciences (NCATS), 2011).

In general, AC50 refers to the concentration giving half of the maximal activity seen.

The nature of this assay: qHTS Assay to Find Inhibitors of Chronic Active B-Cell Receptor Signaling. To be noted: ABC-DLBCL IkBa-CBG/CBR reporter, luminescence ratio (green luciferase fused to IkBa over red control in TMD8 lymphoma cells), 4 h. In outline: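 Doxycycline induced both beetle luciferases in TMD8 lymphoma cells; IKK-driven degradation limits the IkappaBalpha-fused green signal, while red luminescence normalises for cell number and nonspecific effects. Compounds tested up to 46 uM, 4 hrs.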

[1] abbreviates: measured here: CBR red luminescence, cell number.
Setting [2] is: measured here: IkBa-CBG green luminescence.

This is one part of the list. Shown are side measurements of this screen, not its main read-out; they come without a call. Compounds called inactive in the main read-out are mostly missing here. The note in brackets gives the kind of curve behind each potency; many fits are weak.

For `COc1cccc(OC)c1C(=O)Nc1sc2c(c1C(N)=O)CCN(Cc1ccccc1)C2`, the AC50 under setting [1] was 3.98 µM [rising, single point].
As for `CC(=O)N1CCN(C(=O)c2ccc(Oc3ccccc3)cc2)CC1`, the AC50 under setting [1] is 1.58 µM [falling, partial curve, poor fit].
Regarding `COc1ccc(C(=O)Nc2nncs2)cc1S(=O)(=O)N1CC(c2ccccc2)CC1=O` (centres undefined), the concentration at half-maximal activity (AC50) is, setting by setting: under setting [1], 15.8 µM [falling, single point]; under setting [2], 10 µM [rising, partial curve, poor fit].
Turning to `Cc1cc(C(=O)CSc2nc3ccccc3o2)c(C)n1C1CC1`, the AC50 under setting [1] is 0.291 µM [rising, full curve, poor fit].
For `CC(=O)CC(=O)Nc1ccc(Nc2ccccc2)cc1`, under setting [1], the AC50 is 29.1 µM [falling, single point].
As for `Cc1ccc(CNC(=O)Cc2ccc(-n3c(=O)[nH]c4ccsc4c3=O)cc2)cc1`, the AC50 was 16.4 µM [rising, partial curve] under setting [1] and 13 µM [falling, partial curve] under setting [2].
On to `CCN(CC(=O)Nc1ccc(NC(C)=O)cc1)C(=O)C1(c2ccccc2)CC1`, for which the AC50 under setting [1] is 6.51 µM [falling, single point].
On the same count and under the same terms, then `CN(C)c1ccc(Nc2ncnc3ccc(Br)cc23)cc1`, with 39.8 µM [falling, partial curve, poor fit]; and `Cc1cc(C(=O)O)ccc1NCc1ccncc1`, with 1.12 µM [rising, full curve, poor fit].
`Cc1ccc2nc(Nc3ccc(C)c(C)c3)c3nncn3c2c1`: the AC50 under setting [1] is 0.447 µM [rising, full curve, poor fit].
On the same count and under the same terms, then `COc1cccc(C(=O)NNC(=O)c2ccccc2Br)c1`, with 10 µM [falling, partial curve]; and `COc1ccc(N2CCN(S(=O)(=O)c3ccc(F)c(C(=O)Nc4ccccc4Cl)c3)CC2)cc1`, with 5.62 µM [rising, single point].
On the same count and under the same terms, the result for `COc1ccc(OC)c(NC(=O)c2oc(=O)c3ccccc3c2-c2ccccc2)c1` reads 1.41 µM [rising, partial curve, poor fit]; that for `CC1CC(C)CN(C(=O)COC(=O)CCC(=O)c2cccs2)C1` (centres undefined), 11.6 µM [rising, partial curve].
Consider `c1cc(-c2noc(CCC3CCCC3)n2)ccn1`, for which the AC50 under setting [1] was 16.4 µM [rising, partial curve, poor fit].
`CCc1ccc(NC(=O)C2CCN(S(=O)(=O)c3ccc4c(c3)NC(=O)CO4)CC2)cc1`: the half-maximal activity concentration (AC50) was 5.62 µM [rising, single point] under setting [1] and 5.62 µM [falling, single point] under setting [2].
`CC(/C=N/NC(=O)c1cc(-c2ccc(Cl)cc2)nc2ccccc12)=C\c1ccco1`: the AC50 reads like this: under setting [1], 8.2 µM [rising, partial curve]; under setting [2], 5.8 µM [falling, partial curve].
`Cc1cc(NC(=O)c2ccccc2O)nc(C)n1`: under setting [1], the AC50 is 15.8 µM [falling, single point].
Same read-out and setting: then `COC(=O)[C@H](Cc1ccc(O)cc1)NC(=O)Cn1cnc(C(=O)Nc2ccc(C)c(C)c2)n1`, with 0.0082 µM [falling, full curve, poor fit]; and `O=C(N(c1ccccc1)c1ccccc1)N(c1ccccc1)c1ccccc1`, with 35.5 µM [falling, single point].
The same measure, in the same setting: the result for `CCCOc1ccc(C(=O)NNC(=S)NC(=O)c2cc(-c3ccc(Cl)cc3)nc3ccccc23)cc1` reads 2.24 µM [rising, full curve, poor fit]; that for `O=C(N/N=C/c1cn(-c2ccccc2)nc1-c1cc2ccccc2o1)c1cccnc1`, 6.51 µM [rising, single point]; that for `COc1cccc(NC(=O)c2ccc3c(c2)OCO3)c1`, 8.91 µM [falling, partial curve, poor fit].
As for `CC(=O)c1c(C)[nH]c(C(=O)Nc2cccc(S(=O)(=O)N3CCCCC3)c2)c1C`, the AC50 was 23.1 µM [rising, single point] under setting [1] and 20.6 µM [falling, single point] under setting [2].
With `Cc1noc(C(=O)Nc2ccc3c(c2)OCO3)c1Cl`, the half-maximal activity concentration (AC50) under setting [1] was 29.1 µM [falling, single point].
On to `CS(=O)(=O)c1ccc(NC(=O)CCN2C(=O)C3CC=CCC3C2=O)cc1` (centres undefined), for which the AC50 under setting [1] was 29.1 µM [falling, single point].
Same read-out and setting: the result for `O=C(Nc1ccc2c(c1)OCCO2)c1ccc(Cl)cc1` reads 11.2 µM [falling, partial curve]; that for `O=C(O)c1ccc(CSc2nc3ccccc3c(=O)n2-c2ccccc2)cc1`, 17.8 µM [rising, single point].
On the same count and under the same terms, then `O=C(Sc1cccc2cccnc12)c1ccccc1Br`, with 35.5 µM [falling, single point]; and `CCOC(=O)N1CCC(NC(=O)C2CCN(S(=O)(=O)c3c(C)noc3C)CC2)CC1`, with 4.11 µM [rising, full curve, poor fit].
Regarding `COc1cccc(OC)c1OCCCCCCN1CCN(C)CC1`, the AC50 under setting [1] was 35.5 µM [rising, single point].
For the molecule `Cn1c2ccccc2c2cc(/C=N/NC(=O)c3ccc(O)cc3O)ccc21`, under setting [1], the AC50 was 35.5 µM [falling, single point].
Take `CC(C)COC(=O)Nc1ccc(C(=O)O)cc1`: under setting [1], the AC50 is 3.16 µM [falling, partial curve, poor fit].
Same read-out and setting: then `CCN(CC(=O)NCc1cccs1)C(=O)c1ccc(OC)c(OC)c1`, with 14.6 µM [rising, partial curve, poor fit].
On to `O=C(NC1CCSc2ccccc21)c1ccc(C(F)(F)F)cc1` (centres undefined), for which the AC50 under setting [1] is 0.501 µM [falling, full curve, poor fit].
In the case of `COCCn1c(C)cc(C(=O)COC(=O)CNC(=O)c2ccco2)c1C`, the half-maximal activity concentration (AC50) under setting [1] was 29.1 µM [rising, partial curve, poor fit].
With `COc1ccccc1NC(=O)C1CC(=O)N(c2ccc(F)cc2)C1` (centres undefined), the AC50 under setting [1] was 5.17 µM [rising, full curve].
As to `Cc1ccc(S(=O)(=O)NCCNc2ccc([N+](=O)[O-])cc2C(F)(F)F)cc1`, the AC50 under setting [1] was 2 µM [falling, partial curve, poor fit].
On the same count and under the same terms, then `CN1CCN(CCCNC(=O)CCC(=O)N2CCOc3ccccc32)CC1`, with 3.16 µM [rising, partial curve, poor fit].
